Data as given in PubChem BioAssay AID504764 (Drosophila RNAi Screening Center, 2011).

- Screen: 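Genes whose knock-down alters Notch-dependent transcription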 (primary screen)
- Cells: Drosophila Kc167 cells
- Reagent: long dsRNA against Drosophila genes
- Time to read-out: about 5 days (4 days dsRNA, then 24 h after transfection)
- Treatment: transfection of constitutively active membrane-tethered Notch lacking the extracellular domain, read 24 h later
- Measured: 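Firefly luciferase from an E(spl)m3 reporter with active Notch, plus control-promoter and uninduced reporter wells for normalisation; unnormalised counts, duplicate wells a and b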
- Reading the numbers: induced reporter light, run 1, well a and induced reporter light, run 1, well b: higher = more light from the Notch target reporter with active Notch; control promoter light, run 1, well a and control promoter light, run 1, well b: higher = more light from the viral control promoter (cell number, transfection, viability); uninduced reporter light, run 1, well a: higher = more light from the Notch target reporter without active Notch
- Hit rule: 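Hit if the duplicate-averaged log2 ratio of induced to control-promoter light gives a plate-wise z beyond ±2, or induced to uninduced beyond ±1.8; weak-control or discordant-duplicate wells dropped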
- Calls: active = modifier hit (raised or lowered Notch signal); inactive = not a hit
The screen tested about 22,000 reagents; this is an unselected part of those that have a named target and a result. In the full data, 403 (1.9%) were called active. 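Unnormalised raw counts per well; ratio z-scores behind the hit calls and whether each hit raises or lowers signal are not deposited.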 Reagents against one gene are numbered here. Names joined by + are all predicted targets of the reagent. The record does not give: the amount of reagent.

| Target gene | reagent no. | induced reporter light, run 1, well a | induced reporter light, run 1, well b | control promoter light, run 1, well a | control promoter light, run 1, well b | uninduced reporter light, run 1, well a | Outcome |
| --- | --- | --- | --- | --- | --- | --- | --- |
| CG15923 | 1 | 1.91e5 | 1.67e5 | 2.24e5 | 2.36e5 | 11315 | inactive |
| CG6052 | 1 | 2.00e5 | 1.75e5 | 2.66e5 | 1.94e5 | 7925 | inactive |
| Ppt1 (Palmitoyl-protein thioesterase 1) | 1 | 1.30e5 | 1.44e5 | 2.28e5 | 2.55e5 | 9760 | inactive |
| Hinfp (Histone H4 transcription factor) | 1 | 1.13e5 | 95535 | 1.52e5 | 1.76e5 | 8305 | inactive |
| Dim1 | 1 | 71560 | 68140 | 65420 | 47605 | 3015 | inactive |
| BBS1 (Bardet-Biedl syndrome 1) | 1 | 1.54e5 | 1.76e5 | 2.29e5 | 2.48e5 | 13170 | inactive |
| CG16837 | 1 | 1.74e5 | 1.68e5 | 1.99e5 | 1.89e5 | 14050 | inactive |
| CG14676 | 1 | 98750 | 1.14e5 | 1.38e5 | 99200 | 13485 | inactive |
| Jupiter | 1 | 1.33e5 | 1.24e5 | 1.20e5 | 1.27e5 | 8290 | inactive |
| Jupiter | 2 | 91290 | 82695 | 85175 | 46395 | 5055 | inactive |
| Jupiter | 3 | 99430 | 81715 | 1.06e5 | 72410 | 4110 | inactive |
| pcs (parcas) | 1 | 1.65e5 | 1.69e5 | 1.94e5 | 2.15e5 | 15075 | inactive |
| Bfc (Booster for Crq) | 1 | 99280 | 1.11e5 | 1.82e5 | 1.52e5 | 6715 | inactive |
| RpL27A (Ribosomal protein L27A) | 1 | 12005 | 8235 | 14675 | 14042 | 640 | inactive |
| Bili (Band4.1 inhibitor LRP interactor) | 1 | 1.82e5 | 1.64e5 | 3.02e5 | 2.44e5 | 15915 | inactive |
| fipi (factor of interpulse interval) | 1 | 63820 | 63355 | 65085 | 68125 | 3795 | inactive |
| CG32191 | 1 | 1.76e5 | 1.68e5 | 2.50e5 | 1.66e5 | 8180 | inactive |
| zld (zelda) | 1 | 53770 | 66120 | 38960 | 57365 | 9140 | inactive |
| zld (zelda) | 2 | – | – | – | – | – | inactive |
| btsz (bitesize) | 1 | 30460 | 30300 | 25245 | 22850 | 8595 | inactive |
| btsz (bitesize) | 2 | 2.03e5 | 2.19e5 | 2.43e5 | 2.19e5 | 17420 | inactive |
| CG17475 | 1 | 2.29e5 | 2.51e5 | 2.84e5 | 2.43e5 | 20265 | inactive |
| r + CG13012 | 1 | 74360 | 62390 | 98930 | 76885 | 12225 | inactive |
| CG13284 | 1 | 1.36e5 | 1.42e5 | 1.63e5 | 1.86e5 | 12575 | inactive |
| Rai1 (Rat1 Interacting Protein 1) | 1 | 67355 | 62755 | 79350 | 54155 | 8005 | inactive |
| CG32576 + UQCR-14 | 1 | 42460 | 36965 | 59625 | 59690 | 6800 | inactive |
| Idgf1 (Imaginal disc growth factor 1) | 1 | 1.76e5 | 1.59e5 | 1.55e5 | 1.66e5 | 14475 | inactive |
| DCP2 (Decapping protein 2) | 1 | 1.15e5 | 1.01e5 | 41225 | 45045 | 7830 | inactive |
| Chchd3 (Coiled-coil-helix-coiled-coil-helix domain containing 3) | 1 | 1260 | 1535 | 3055 | 2755 | 180 | inactive |
| sosie | 1 | 1.40e5 | 1.43e5 | 1.52e5 | 1.33e5 | 11495 | inactive |
| Gel (Gelsolin) | 1 | 98305 | 1.18e5 | 79110 | 92020 | 8455 | inactive |
| CG11668 | 1 | 3.02e5 | 2.71e5 | 2.52e5 | 2.70e5 | 21455 | inactive |
| Mtpalpha (Mitochondrial trifunctional protein alpha subunit) | 1 | 2.45e5 | 2.28e5 | 1.85e5 | 1.77e5 | 17225 | inactive |
| CG6462 | 1 | 2.10e5 | 1.68e5 | 2.03e5 | 1.84e5 | 11882 | inactive |
| eIF2Bepsilon (eukaryotic translation initiation factor 2B subunit epsilon) | 1 | 1.19e5 | 1.31e5 | 1.76e5 | 1.75e5 | 7410 | inactive |
| Mal-A8 (Maltase A8) | 1 | 2.03e5 | 2.19e5 | 2.28e5 | 2.11e5 | 17055 | inactive |
| Tmtc4 (Transmembrane O-mannosyltransferase targeting cadherins 4) | 1 | 1.87e5 | 1.93e5 | 2.19e5 | 2.39e5 | 18105 | inactive |
| CG5399 | 1 | 2.47e5 | 2.38e5 | 2.17e5 | 2.48e5 | 20670 | inactive |
| Dnaaf6 (Dynein axonemal assembly factor 6) | 1 | 1.78e5 | 1.80e5 | 1.75e5 | 1.56e5 | 9200 | inactive |
| ppk11 (pickpocket 11) | 1 | 1.36e5 | 1.77e5 | 81625 | 1.16e5 | 20630 | inactive |
| CG3226 | 1 | 2.77e5 | 2.31e5 | 3.42e5 | 3.37e5 | 17532 | inactive |
| CG9497 | 1 | 95245 | 92630 | 75590 | 75130 | 5750 | inactive |
| His2B:CG33894 + His2B:CG33872 + His2B:CG33902 + 20 more | 1 | 29235 | 36495 | 26785 | 36545 | 4860 | inactive |
| Prip | 1 | 1.78e5 | 1.66e5 | 1.60e5 | 1.47e5 | 13885 | inactive |
| GstD7 (Glutathione S transferase D7) | 1 | 90995 | 99185 | 1.35e5 | 1.14e5 | 9580 | inactive |
| CG43102 | 1 | 1.99e5 | 1.80e5 | 1.98e5 | 1.99e5 | 14290 | inactive |
| CG43102 | 2 | 2.17e5 | 1.98e5 | 2.30e5 | 2.24e5 | 18140 | inactive |
| CG1116 | 1 | 52830 | 72765 | 49545 | 55170 | 5030 | inactive |
| PolZ2 (DNA polymerase zeta subunit 2) | 1 | 88685 | 1.07e5 | 82020 | 70535 | 4920 | inactive |
| Cnep1r2 (CTD nuclear envelope phosphatase 1 regulatory subunit 2) | 1 | 1.26e5 | 1.30e5 | 69460 | 29555 | 9670 | inactive |

4 entries from above, set out differently:
zld (zelda) #1 | induced reporter light, run 1, well a: 53770; induced reporter light, run 1, well b: 66120; control promoter light, run 1, well a: 38960; control promoter light, run 1, well b: 57365; uninduced reporter light, run 1, well a: 9140; Outcome: inactive
zld (zelda) #2 | Outcome: inactive
btsz (bitesize) #1 | induced reporter light, run 1, well a: 30460; induced reporter light, run 1, well b: 30300; control promoter light, run 1, well a: 25245; control promoter light, run 1, well b: 22850; uninduced reporter light, run 1, well a: 8595; Outcome: inactive
btsz (bitesize) #2 | induced reporter light, run 1, well a: 2.03e5; induced reporter light, run 1, well b: 2.19e5; control promoter light, run 1, well a: 2.43e5; control promoter light, run 1, well b: 2.19e5; uninduced reporter light, run 1, well a: 17420; Outcome: inactive
